Results published in doi:10.1101/671156.
Results are given in words; binding and its absence hold for the method and conditions named. In cells and extracts the contact can be indirect. Here binding means that the protein was enriched with, or labelled near, the bait; the list need not be complete. Sequences can lack the tags named with a protein.

Target: T1, GST-YxxQ (307-545), recombinant CoAA YxxQ repeats (human) (UniProt Q96PK6)
T1 sequence: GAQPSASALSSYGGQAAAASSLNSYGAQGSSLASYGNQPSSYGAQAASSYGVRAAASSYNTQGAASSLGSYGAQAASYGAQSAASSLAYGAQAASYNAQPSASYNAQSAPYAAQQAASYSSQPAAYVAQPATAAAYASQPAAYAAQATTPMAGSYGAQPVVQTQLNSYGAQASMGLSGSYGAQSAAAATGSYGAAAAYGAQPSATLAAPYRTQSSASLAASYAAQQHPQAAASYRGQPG
Assay: affinity purification with mass spectrometry

B1: heterogeneous ribonucleoprotein hnRNP M (protein, UniProt P52272 1-730)
chain: MAAGVEAAAEVAATEIKMEEESGAPGVPSGNGAPGPKGEGERPAQNEKRKEKNIKRGGNRFEPYANPTKRYRAFITNIPFDVKWQSLKDLVKEKVGEVTYVELLMDAEGKSRGCAVVEFKMEESMKKAAEVLNKHSLSGRPLKVKEDPDGEHARRAMQKVMATTGGMGMGPGGPGMITIPPSILNNPNIPNEIIHALQAGRLGSTVFVANLDYKVGWKKLKEVFSMAGVVVRADILEDKDGKSRGIGTVTFEQSIEAVQAISMFNGQLLFDRPMHVKMDERALPKGDFFPPERPQQLPHGLGGIGMGLGPGGQPIDANHLNKGIGMGNIGPAGMGMEGIGFGINKMGGMEGPFGGGMENMGRFGSGMNMGRINEILSNALKRGEIIAKQGGGGGGGSVPGIERMGPGIDRLGGAGMERMGAGLGHGMDRVGSEIERMGLVMDRMGSVERMGSGIERMGPLGLDHMASSIERMGQTMERIGSGVERMGAGMGFGLERMAAPIDRVGQTIERMGSGVERMGPAIERMGLSMERMVPAGMGAGLERMGPVMDRMATGLERMGANNLERMGLERMGANSLERMGLERMGANSLERMGPAMGPALGAGIERMGLAMGGGGGASFDRAIEMERGNFGGSFAGSFGGAGGHAPGVARKACQIFVRNLPFDFTWKMLKDKFNECGHVLYADIKMENGKSKGCGVVKFESPEVAERACRMMNGMKLSGREIDVRIDRNA
Question: How did the binding turn out when B1 was run?
Answer: binds

B2: hnRNP M1 (alternatively spliced isoform of hnRNP M) (protein, UniProt P52272-2 1-691)
chain: MAAGVEAAAEVAATEIKMEEESGAPGVPSGNGAPGPKGEGERPAQNEKRKEKNIKRGGNRFEPYANPTKRYRAFITNIPFDVKWQSLKDLVKEKVGEVTYVELLMDAEGKSRGCAVVEFKMEESMKKAAEVLNKHSLSGRPLKVKEDPDGEHARRAMQKAGRLGSTVFVANLDYKVGWKKLKEVFSMAGVVVRADILEDKDGKSRGIGTVTFEQSIEAVQAISMFNGQLLFDRPMHVKMDERALPKGDFFPPERPQQLPHGLGGIGMGLGPGGQPIDANHLNKGIGMGNIGPAGMGMEGIGFGINKMGGMEGPFGGGMENMGRFGSGMNMGRINEILSNALKRGEIIAKQGGGGGGGSVPGIERMGPGIDRLGGAGMERMGAGLGHGMDRVGSEIERMGLVMDRMGSVERMGSGIERMGPLGLDHMASSIERMGQTMERIGSGVERMGAGMGFGLERMAAPIDRVGQTIERMGSGVERMGPAIERMGLSMERMVPAGMGAGLERMGPVMDRMATGLERMGANNLERMGLERMGANSLERMGLERMGANSLERMGPAMGPALGAGIERMGLAMGGGGGASFDRAIEMERGNFGGSFAGSFGGAGGHAPGVARKACQIFVRNLPFDFTWKMLKDKFNECGHVLYADIKMENGKSKGCGVVKFESPEVAERACRMMNGMKLSGREIDVRIDRNA
Question: For B2, which binding is on record?
Answer: binds
